The values are deposited in ChEMBL (CHEMBL3988442, “University of Dundee, Small-Polar-MMV Screening Library” (2021)).

Mtb cholesterol medium: 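Phenotypic screen: M. tuberculosis growth, cholesterol and DPPC medium, 4 days; the read-out is not stated. Concentration: 50 µM. Direction is inferred from retests: higher values go with more growth inhibition. Of about 69,000 compounds tested this way, about 370 (0.54%) reached 50% or more in at least one test.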
Mtb glucose medium: 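Whole-cell growth test on Mycobacterium tuberculosis, read after 3 days in glucose-containing 7H9 medium; the read-out is not stated. Compounds at 50 µM. The record gives no direction; compounds that gave an IC50 in retests scored well above the rest, so higher reads as more growth inhibition. About 69,000 compounds were tested under these conditions; 1.1% (about 760) showed 50% or more at least once.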

Results are given as percent effect. The controls that fix the scale are not given in the record; negative values are as filed. The compounds are a random part of those screened. Two or more numbers in one place are separate tests of the same structure; such repeats can differ widely.

structure	Mtb cholesterol medium	Mtb glucose medium
CCn1nnc2c1C(COCCN(C)C)CN(c1nncs1)C2 (stereo not given)	-46.35	-37.11 & -27.09
O=C(COCCOc1ccccc1)NC1CCN(c2ncccn2)CC1	-55.96	-12.86 & -11.06
Cc1nccnc1C1CCN(C2CCCC2O)CC1 (stereo not given)	15.17	-6.296
Cc1ccccc1Cn1cnc2oc(C)c(C(=O)O)c2c1=O	-9.889	-7.132
O=C(NCCN1CCOCC1)c1cc(-c2ccccc2Cl)[nH]n1	-11.82	-2.345
CC(C)NCC1OCCc2cn(C)nc21.O=C(O)C(F)(F)F (stereo not given)	4.128	-41.32 & -5.48
Cc1ccc(CN2CCC3(CC2)CCN(Cc2ccoc2)CC3)cc1.O=C(O)C(F)(F)F.O=C(O)C(F)(F)F	7.547	17.4
CS(=O)(=O)N1CCC(CSc2ccccc2)C1 (stereo not given)	-1.179	14.15
CCCNC(=O)c1ccc2c(c1)C(=O)N(CC(C)C)C2=O	11.27	-1.969
Cc1ccc(C2(O)CCN(C(=O)CCn3ccc(=O)[nH]c3=O)CC2)nc1	-0.2407	-16.37
COc1ccccc1OC1CN(C(=O)Cc2c(C)nc(N)nc2C)C1	-15.22	-0.9546
CCCc1noc(C2CC(=O)N(C(C)(C)C)C2)n1 (stereo not given)	-14.28	-21.53
CN1CCN(Cc2noc(-c3cc(-c4ccc(F)cc4)n[nH]3)n2)CC1	-57.57	-22.29
O=S(=O)(N1CCOCC1)N1CCC(Oc2cnccn2)CC1	-22.66	-0.9944
CCN1CCN2CCCN(S(=O)(=O)c3cccc(F)c3)C2C1=O (stereo not given)	5.776	19.96 & 2.291
O=C(O)C(F)(F)F.[H][C@@]12COC[C@]1(CNC(=O)c1ccco1)CN(CC1CCOCC1)C2	12.98 & -6.503	-4.27
Cn1nccc1NCc1cc2cc(F)ccc2o1	-30.22	-55.73
Cc1cc(CNc2cc(-c3ccoc3C)nn2CCO)c(C)o1	5.021	4.812 & -10.17
COC(=O)c1ccc(CN2CCC(c3n[nH]c(C)n3)CC2)s1	1.946 & 2.598	-11.11
O=C(O)C(F)(F)F.[H][C@@]12CCN(Cc3nccs3)C[C@@]1([H])O[C@H](C(=O)N1CCC(C)CC1)C2	-9.082	-4.25
O=C(Cn1ccc2ccc(F)cc21)NCc1ccc(C(=O)O)cc1	-11.98	-40.51
Cc1ccc(O)c(C(=O)N2CCCC2c2nncn2CC(C)C)c1 (stereo not given)	-28.77	37.63
O=C(O)c1c[nH]c2cc(NS(=O)(=O)c3ccc(Cl)cc3F)ccc12	1.155	-16.04
O=C(NC[C@H]1OC[C@@H](NC2CCC2)[C@@H]1O)c1cccs1	-4.485	2.657 & -32.24
Cc1cc(-c2cc(S(=O)(=O)N3C[C@H](C4CC4)[C@@H](N)C3)c(C)s2)[nH]n1	7.035	14.36
O=C(CN1CCOc2ccccc2C1)NCc1cc2n(n1)CCCNC2	5.404	-37.82
c1ccc(Oc2nccc3occc23)c(CN2CCCCC2)c1	0.5792	13.37
O=C(O)C(F)(F)F.[H][C@]12CCN(CC(C)C)CC[C@@]1([H])S(=O)(=O)CCN2S(C)(=O)=O	-1.136 & 1.199	0.3781
CCc1ccc(C2COCCN2C(=O)Nc2cc(C)on2)o1 (stereo not given)	-0.8563	-22.6
CC(C)c1ncc2c(n1)CN(Cc1nc(-c3ccccn3)no1)CC2	-0.9464	-1.148 & -10.89
CN(Cc1noc(C(C)(C)C)n1)C1CCCN(c2cccnn2)C1 (stereo not given)	-47.86	-9.601
[H][C@@]12CN(c3ccncc3)C[C@]1([H])N(CCCc1ccc(F)cc1)C(=O)O2	11.34	12.1
CC(=O)N1Cc2nc(C(=O)NCCc3cccnc3)oc2C1	-23.97	32.21
CN(C)CC1CN(C(=O)CCc2ccccc2)Cc2nccn2C1.O=C(O)C(F)(F)F (stereo not given)	15.13	10.82
CCn1c(C)cc(C(=O)N2CCc3nnc(N)cc3C2)c1C	0.9865	3.103
[H][C@@]12CCCO[C@]1([H])[C@@H](N(C)Cc1cncnc1)CN2C(=O)c1ccco1	-3.375	-2.566
CN(C)CCN1CCCC12CCN(C(=O)c1ccco1)CC2.O=C(O)C(F)(F)F.O=C(O)C(F)(F)F	-17.5 & -4.477	-3.235
O=C(O)CN1CCC2(CCc3ccccc32)CC1	4.155	6.739 & -2.87
COc1ccc(NC(=O)C2CCOC2)c(N2CCN(C(C)=O)CC2)n1 (stereo not given)	2.373 & 2.965	-23.22
O=C(Nc1cccnc1)C1=Cc2ccccc2OC1	-12.16	16.26 & -8.468
CC(C)C1CN(C(=O)c2ccncc2)CCS1 (stereo not given)	9.75	6.325 & 9.675
Cc1cccc(C2CCCN2Cc2nc(N)nc(N(C)C)n2)c1C (stereo not given)	12.43	37.19
[H][C@@]12CN(Cc3ccccc3O)C[C@]1([H])OCC(=O)N2Cc1nccn1C	-14.05	-14.59 & -7.443

The first 2 entries again:

Result for CCn1nnc2c1C(COCCN(C)C)CN(c1nncs1)C2 (stereo not given) was Mtb cholesterol medium: -46.35%; Mtb glucose medium: -37.11% & -27.09%.
Result for O=C(COCCOc1ccccc1)NC1CCN(c2ncccn2)CC1 was Mtb cholesterol medium: -55.96%; Mtb glucose medium: -12.86% & -11.06%.